Source: ChEMBL document CHEMBL3988442, “University of Dundee, Small-Polar-MMV Screening Library” (2021).

Protein sequences, listed by entry. Tags and fused reporters are not part of them. Residues count along the entry.
UniProt Q4DA54, 1-478: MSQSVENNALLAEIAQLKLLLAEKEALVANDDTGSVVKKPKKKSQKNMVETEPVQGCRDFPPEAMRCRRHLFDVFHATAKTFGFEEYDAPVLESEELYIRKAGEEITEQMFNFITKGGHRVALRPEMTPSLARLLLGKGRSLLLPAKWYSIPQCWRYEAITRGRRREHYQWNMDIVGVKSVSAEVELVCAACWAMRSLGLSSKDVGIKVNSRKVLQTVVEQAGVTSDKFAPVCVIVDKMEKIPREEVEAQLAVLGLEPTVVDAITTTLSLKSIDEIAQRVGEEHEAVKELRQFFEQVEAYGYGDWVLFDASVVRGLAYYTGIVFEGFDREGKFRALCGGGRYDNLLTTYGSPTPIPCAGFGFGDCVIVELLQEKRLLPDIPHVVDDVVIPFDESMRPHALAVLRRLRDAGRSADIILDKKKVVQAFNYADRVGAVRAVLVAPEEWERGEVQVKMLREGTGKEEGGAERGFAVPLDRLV
UniProt Q8IDJ8, 1-583: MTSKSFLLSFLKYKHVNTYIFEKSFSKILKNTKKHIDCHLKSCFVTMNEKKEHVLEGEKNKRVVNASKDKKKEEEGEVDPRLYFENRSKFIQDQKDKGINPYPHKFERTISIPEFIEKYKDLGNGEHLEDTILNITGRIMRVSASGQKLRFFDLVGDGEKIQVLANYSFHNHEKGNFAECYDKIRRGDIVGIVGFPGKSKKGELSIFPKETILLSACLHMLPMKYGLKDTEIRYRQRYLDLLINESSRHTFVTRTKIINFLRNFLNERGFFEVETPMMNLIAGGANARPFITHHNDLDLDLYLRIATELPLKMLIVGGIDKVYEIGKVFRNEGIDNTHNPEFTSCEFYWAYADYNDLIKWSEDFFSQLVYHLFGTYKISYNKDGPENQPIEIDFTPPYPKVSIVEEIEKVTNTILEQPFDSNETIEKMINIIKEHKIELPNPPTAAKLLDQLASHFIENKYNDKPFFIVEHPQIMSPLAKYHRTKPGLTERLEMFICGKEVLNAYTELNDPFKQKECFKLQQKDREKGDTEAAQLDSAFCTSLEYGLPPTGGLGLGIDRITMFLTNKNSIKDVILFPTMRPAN

Values are the deposited “Percent Effect”, in %.
How 0% and 100% were set is not recorded. Most values in the screen are low, and negative values occur.
This is an unselected part of the compounds tested.

TcHisRS: 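Enzyme assay of histidyl-tRNA synthetase; the read-out is not stated. Target: Histidine-tRNA ligase, Trypanosoma cruzi CL Brener (UniProt Q4DA54). Concentration: 30 µM. Direction is inferred from retests: higher values go with stronger inhibition. Size under these conditions: about 69,000 compounds, about 31 of them at 50% or above in at least one test.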
PfKRS1: 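Lysine-tRNA ligase, Plasmodium falciparum 3D7 (UniProt Q8IDJ8). Enzyme assay of the cytosolic lysyl-tRNA synthetase in 384-well plates, read by luminescence. Concentration: 30 µM. Higher reads as stronger inhibition, judged from the few compounds that gave an IC50. Size under these conditions: about 69,000 compounds, about 49 of them at 50% or above in at least one test.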

structure | TcHisRS | PfKRS1
CCn1ccnc1CN1CCCN(C(=O)C2(C#N)CCCCC2)CC1 | 7.006% | -0.2708%
O=S(=O)(N1CCCC1)N1CCCCC1CCc1ccccc1 (centres undefined) | -0.8264% | -1.103%
Cc1ccc(C(=O)N2CCN(S(C)(=O)=O)CC2)cc1N1CCNC1=O | 3.734% | 0.2447%
Cc1nc(O)cc(C2CCCN2CCO)n1 (centres undefined) | 6.383% | 3.242%
CCN(Cc1cnn(C)c1)C[C@H]1CC[C@@H](Cc2ccc(C#N)cc2)O1 | 3.867% | 1.162%
COc1cc(N2CCC(c3nccn3CCCN(C)C)CC2)nc(N)n1 | -1.345% | 12.35%
O=C(c1cnccn1)N1CCCC2(CCN(Cc3ccsc3)C2)C1 (centres undefined) | 6.667% | 0.1887%
COCCN1CCC2(CC1)CN(C(=O)c1ccccc1)CCO2 | 2.913% | -1.403%
CN(C)C(=O)c1ccc2c(c1)N(C)C(CC(=O)NCCC(C)(C)C)CO2 (centres undefined) | 2.439% | 6.766%
Cn1nc(C2CN(C(=O)c3cscn3)C2)c2nccnc21 | 1.622% | -2.113%
CC(=O)N1Cc2nccn2CC(CNC(=O)c2cnccn2)C1 (centres undefined) | 1.227% | 5.295%
Cc1ccc(CN2CC3(CCN(C(=O)c4cscn4)C3)C2)o1 | 0.8772% | 6.599%
CCc1nc(CN2CCCN(C(=O)c3ccco3)CC2)cs1 | 9.456% | -2.19%
COc1ccc2cccc(CC(=O)NCCCc3n[nH]c(C)n3)c2c1 | 7.895% | 2.112%
CCc1noc(C(C)N2CCN(S(=O)(=O)N3CCCC3)CC2)n1 (centres undefined) | 7.345% | 2.837%
CCC(=O)NC1CCN(c2cccc(OC(F)(F)F)c2)C1=O (centres undefined) | 8.333% | 6.176%
CS(=O)(=O)N1Cc2nc(C(=O)NCc3ccccc3)oc2C1 | 3.681% | 4.36%
O=C(Nc1ccc2c(c1)OCO2)c1ccc(N2CCCC2)nn1 | 6.024% | -6.101%
CN(C)C(=O)N1CC[C@H]2[C@H]1CCN2c1nncs1 | 7.595% | 10.99%
CC(C)c1nn(C)c(N(C)C)c1CNCc1ccc(CO)c(F)c1 | 4.046% | -0.1455%
CCC[C@@H]1CN(C(=O)c2ccccc2-c2ccccc2)C[C@H]1N(C)C | 6.186% | 5.716%
Cc1nn(C)cc1C1CC(=O)Nc2c1cnn2C(C)(C)C (centres undefined) | 0.9901% | -6.113%
c1cnnc(N[C@@H]2CC[C@@H]3CN(Cc4c[nH]c5ccccc45)C[C@@H]32)c1 | 14% | 0.6687%
CC(CNC(=O)Nc1cn[nH]c1)N1CCCC1 (centres undefined) | 9.038% | -1.449%
O=C(c1cc2c(s1)CCC2)N1CCCC1c1noc(C2CC2)n1 (centres undefined) | 8.187% | -1.463%
CCC(CC)c1nnc(NC(=O)N2CCC(C(N)=O)CC2)s1 | 2.041% | 9.653%
COCCN1CCN(CCCS(C)(=O)=O)CC1C (centres undefined) | -0.3831% | -2.118%
CO[C@H]1CCN(S(=O)(=O)c2cn(C)cn2)[C@H]1Cc1cccnc1 | -1.622% | 1.068%
CC(C)CCn1cc(C(C(=O)O)N2CCSCC2)cn1 (centres undefined) | 7.463% | -0.8849%
COc1cccc(N2CCN(C(=O)CCO)CC2=O)c1 | 3.333% | 1.673%
O=C(NCCCNCC1CNc2ccnn2C1)c1ccccc1 (centres undefined) | 3.333% | 2.752%
O=C(C1CC1)N1C[C@H]2CCCN(S(=O)(=O)c3ccc(Cl)s3)[C@H]2C1 | 6.977% | 2.861%
COc1c(C2CCCN2CC(=O)NCc2ccccn2)c(C)nn1C (centres undefined) | -0.2865% | -0.02755%
Cc1nc(Cn2c3c(ccc2=O)CC(N)CC3)cs1 (centres undefined) | 5.525% | 3.873%
CC(C)NC(=O)c1cc2c(s1)CCN2C(=O)CN(C)C | 7.317% | 0.787%
CN(Cc1cccs1)S(=O)(=O)c1ccc(C(F)(F)F)nc1 | 5.288% | 0.8823%
Cc1ccc(-c2nnc(CNC(=O)c3cccnc3)o2)cn1 | 3.846% | -0.3196%
NC(=O)CN1CCCC1c1cncc(Oc2ccc(Cl)cc2)n1 (centres undefined) | 7.605% | 0.471%
Cc1ccc(C(=O)N2CC[C@H]3[C@H]2CCN3CC2CCOCC2)cc1F | 6.122% | 0.9543%
CN(Cc1nnc2n1CCC2)C(=O)c1ccc2c(c1)CCO2 | -1.453% | 1.362%
CN(C)C(=O)N1CCOCC2(CCN(c3ccccn3)C2)C1 (centres undefined) | 1.695% | 5.613%
CS(=O)(=O)NC[C@H]1Cn2c(-c3ccc(Cl)cc3)cnc2CO1 | 8.696% | 2.396%
COc1c(C)cnc(CN(C)C(=O)c2ccc(C3CCCO3)s2)c1C (centres undefined) | 11.84% | 6.262%
CCOCC1CN(C(=O)N2CCCC2)Cc2cnn(C)c21 (centres undefined) | -5.714% | 2.217%
Cc1nc2ccnn2c(C)c1CCC(=O)N1CCSCC1 | 1.734% | -0.02646%
CCn1ncc2c1CCCC2NCc1cccc2c1OCCCO2 (centres undefined) | 1.127% | 3.29%
COc1ccc(C)cc1NC(=O)Nc1cnc(N2CCN(C)CC2)nc1 | 5.435% | 2.068%
Cc1nn(C)c(C)c1-c1nc2cc(S(=O)(=O)N3CCCC3)ccc2n1C | 2.439% | 2.742%
c1ccc(OC[C@]23COC[C@H]2CN(c2ncccn2)C3)nc1 | -0.5405% | 2.729%
COc1ccc2c(c1)Cc1c-2nc(N)c(C#N)c1C1CCOC1 (centres undefined) | 13.43% | 3.006%
CC/N=c1/c(NC(=O)C2CC2)c(O)oc2ccccc12 | 3.509% | -0.8539%
CC(C)Cc1cc(C(=O)NCCn2nc3ccccn3c2=O)[nH]n1 | 0% | 2.257%
COCCN1CCC(CN(CC2CCCO2)C(=O)Cn2cccn2)CC1 (centres undefined) | 3.518% | 3.896%
O=C(c1cc(Br)ccc1Cl)N1CCN(Cc2ccco2)CC1 | 6.897% | -1.766%
O=C(Nc1cccnc1)C1=NN(c2ccccc2)C(=O)CN1 | -0.5714% | 0.3026%
O=C(NCc1cnn2cccnc12)C1CC2(CCNCC2)CN1 (centres undefined) | 0.8% | 4.072%
Cc1cc(C(=O)NC2CCN(c3nnc(C)c(C)c3C#N)CC2)no1 | 16.02% | 3.891%
CCc1n[nH]c(C2CN(C(=O)CCOCC(F)(F)F)CCO2)n1 (centres undefined) | -0.9901% | 2.85%
CNc1nc(C2CCCN2C(C)=O)nc2c1CN(C1CCCC1)CC2 (centres undefined) | 13.19% | 2.919%
O=C(CCc1ccsc1)Nc1cnccc1O | 2.89% | 5.981%
CNc1nccnc1C1CN(Cc2ccc(OCC(=O)O)cc2)CCO1 (centres undefined) | 7.895% | 0.2288%
CC(C)N(C)C[C@H]1OC[C@@H]2CCN(Cc3cccc(C#N)c3)C[C@@H]21 | 8.046% | 0.05714%
COCC(=O)N1CCOC(c2cccc(-c3cncnc3)n2)C1 (centres undefined) | 6.667% | 3.649%
Cc1cccc2[nH]c(C3CCCN(Cc4ccccc4C(=O)O)C3)nc12 (centres undefined) | 5.473% | 1.164%
CCOc1cc2c(cc1CN1CCC3(CCCNC3=O)C1)CCC2 (centres undefined) | 4.478% | -1.979%
COCCCn1ccc(NC(=O)NCCn2ccnc2)n1 | 7.216% | 1.937%
COc1cccc(-c2cc(C3CCCNC3)ccn2)c1 (centres undefined) | 9.398% | 0%
CC(C)(C)C(=O)Cn1nc(C2CC2)cc(C(F)(F)F)c1=O | 7.778% | 4.741%
O=C(NCC1CCOCC1)c1cc(-c2cccnc2)c2cnccc2n1 | 5.747% | -0.02102%
CN(Cc1ccc(F)cc1)CC1(O)CCN(C(=O)c2cccn2C)C1 (centres undefined) | 0.5464% | -1.918%
O=S1(=O)CCC(n2cc(C3=CCN(CCc4ccccc4)CC3)cn2)C1 (centres undefined) | 0% | 0.9171%
CCS(=O)(=O)NCc1nc(C)cc(N2CCOCC2)n1 | 0.5291% | 6.155%
CCS(=O)(=O)N1CCCC(c2nccn2Cc2ccccn2)C1 (centres undefined) | 4.891% | 4.649%
COc1cc(OC)cc(N2CCC(NCc3occc3C)C2=O)c1 (centres undefined) | -1.031% | -2.53%
O=C(c1ccccn1)N1C[C@H]2CCC[C@@]2(COCC2CCOCC2)C1 | 12.61% | 10.14%
c1ccc(Cc2noc(CN3CCCCC3Cn3cccn3)n2)cc1 (centres undefined) | 5.747% | 1.933%